Some entries share one result that the patent states for a list of compounds.
Tests used:
[1] = Solubility (turbidity) of 2% solutions at various pH; format: physicochemical
[2] = in the presence of Actibrom, STABREX and bleach

## C(CCCCc1nnn[nH]1)CCCc1nnn[nH]1 [ODTZ, 1,8-di(1H-tetrazol-5-yl)octane]
[1]
  pH above which the solution remained clear: > 6.5
[2]
  % loss due to oxidizing biocides: < 2.7%

Reference: patent US9771336B2, “Tetrazole based corrosion inhibitors” (Ecolab USA Inc., priority 2013, dated 2017)
